No constants are given. Whether binding was seen depends on the method and setting. In cells and extracts the contact can be indirect. Some results given as binding are weak or reduced against the parent protein; the word gives no strength.
What was measured:
[1] = target: T6BP (TAX1BP1), endogenous (human (endogenous in HeLa-CIITA, DG-75, KG-1)) (UniProt Q86VP1); experiment: co-IP; endogenous proteins from B (DG-75) cells; IP with anti-T6BP or anti-CANX, Western blot; beads without antibody as control
[2] = target: T6BP (TAX1BP1), endogenous (human (endogenous in HeLa-CIITA, DG-75, KG-1)) (UniProt Q86VP1); experiment: proximity ligation; fixed HeLa-CIITA cells 48 h after siCTRL or siT6BP, anti-T6BP (rabbit) and anti-CANX (mouse), Duolink PLA, dots per cell
[3] = target: T6BP (TAX1BP1), endogenous (human (endogenous in HeLa-CIITA, DG-75, KG-1)) (UniProt Q86VP1); experiment: co-IP; endogenous proteins from dendritic-like (KG-1, DC) cells; IP with anti-T6BP or anti-CANX, Western blot; beads without antibody as control
[4] = target: T6BP (TAX1BP1), endogenous (human (endogenous in HeLa-CIITA, DG-75, KG-1)) (UniProt Q86VP1); experiment: co-IP; endogenous proteins from HeLa-CIITA lysate; anti-TAX1BP1 HPA024432 with protein A Sepharose or anti-CANX PA5-34754 on protein A magnetic beads; Western blot; beads without antibody as control

Chains of the proteins cited; added tags and fusions are not shown.
UniProt Q86VP1: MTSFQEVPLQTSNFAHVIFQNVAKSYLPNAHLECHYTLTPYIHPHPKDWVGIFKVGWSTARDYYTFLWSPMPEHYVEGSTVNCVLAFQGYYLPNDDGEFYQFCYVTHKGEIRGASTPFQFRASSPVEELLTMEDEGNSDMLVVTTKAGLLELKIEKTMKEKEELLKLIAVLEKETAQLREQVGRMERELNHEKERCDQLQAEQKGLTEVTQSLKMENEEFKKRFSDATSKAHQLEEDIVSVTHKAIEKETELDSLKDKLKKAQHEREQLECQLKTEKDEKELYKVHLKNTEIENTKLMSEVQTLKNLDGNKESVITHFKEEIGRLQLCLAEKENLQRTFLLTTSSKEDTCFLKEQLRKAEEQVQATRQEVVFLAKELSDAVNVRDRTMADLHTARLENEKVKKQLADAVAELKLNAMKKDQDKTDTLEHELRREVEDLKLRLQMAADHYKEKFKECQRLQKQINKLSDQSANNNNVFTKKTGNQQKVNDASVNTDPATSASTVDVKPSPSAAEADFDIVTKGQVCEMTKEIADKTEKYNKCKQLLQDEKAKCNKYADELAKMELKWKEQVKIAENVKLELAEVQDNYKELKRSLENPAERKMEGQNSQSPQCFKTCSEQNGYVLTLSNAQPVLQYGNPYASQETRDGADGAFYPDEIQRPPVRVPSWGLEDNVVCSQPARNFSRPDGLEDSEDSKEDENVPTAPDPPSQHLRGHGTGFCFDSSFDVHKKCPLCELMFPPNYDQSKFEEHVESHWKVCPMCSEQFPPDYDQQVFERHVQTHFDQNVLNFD

- binding [1]: binds
- binding [2]: binds
- binding [3]: binds
- binding [4]: binds
B1: Calnexin (CANX), endogenous (natural protein, UniProt P27824 21-592, looked up)
chain: HDGHDDDVIDIEDDLDDVIEEVEDSKPDTTAPPSSPKVTYKAPVPTGEVYFADSFDRGTLSGWILSKAKKDDTDDEIAKYDGKWEVEEMKESKLPGDKGLVLMSRAKHHAISAKLNKPFLFDTKPLIVQYEVNFQNGIECGGAYVKLLSKTPELNLDQFHDKTPYTIMFGPDKCGEDYKLHFIFRHKNPKTGIYEEKHAKRPDADLKTYFTDKKTHLYTLILNPDNSFEILVDQSVVNSGNLLNDMTPPVNPSREIEDPEDRKPEDWDERPKIPDPEAVKPDDWDEDAPAKIPDEEATKPEGWLDDEPEYVPDPDAEKPEDWDEDMDGEWEAPQIANPRCESAPGCGVWQRPVIDNPNYKGKWKPPMIDNPSYQGIWKPRKIPNPDFFEDLEPFRMTPFSAIGLELWSMTSDIFFDNFIICADRRIVDDWANDGWGLKKAADGAAEPGVVGQMIEAAEERPWLWVVYILTVALPVFLVILFCCSGKKQTSGMEYKKTDAPQPDVKEEEEEKEEEKDKGDEEEEGEEKLEEKQKSDAEEDGGTVSQEEEDRKPKAEEDEILNRSPRNRKPRRE
notes: ER-resident chaperone calnexin, endogenous; source: endogenous, HeLa-CIITA, DG-75 (B) and KG-1 (dendritic-like) lysates; endogenous in fixed HeLa-CIITA cells
